According to publication PMC3262835:
Results are given in words; binding and its absence hold for the method and conditions named. Binding seen in cells or lysates may run through a third protein. Some entries that bind do so weakly or less than the wild type.

By UniProt entry, the sequences of proteins in these tests, tags left out.
UniProt P35222: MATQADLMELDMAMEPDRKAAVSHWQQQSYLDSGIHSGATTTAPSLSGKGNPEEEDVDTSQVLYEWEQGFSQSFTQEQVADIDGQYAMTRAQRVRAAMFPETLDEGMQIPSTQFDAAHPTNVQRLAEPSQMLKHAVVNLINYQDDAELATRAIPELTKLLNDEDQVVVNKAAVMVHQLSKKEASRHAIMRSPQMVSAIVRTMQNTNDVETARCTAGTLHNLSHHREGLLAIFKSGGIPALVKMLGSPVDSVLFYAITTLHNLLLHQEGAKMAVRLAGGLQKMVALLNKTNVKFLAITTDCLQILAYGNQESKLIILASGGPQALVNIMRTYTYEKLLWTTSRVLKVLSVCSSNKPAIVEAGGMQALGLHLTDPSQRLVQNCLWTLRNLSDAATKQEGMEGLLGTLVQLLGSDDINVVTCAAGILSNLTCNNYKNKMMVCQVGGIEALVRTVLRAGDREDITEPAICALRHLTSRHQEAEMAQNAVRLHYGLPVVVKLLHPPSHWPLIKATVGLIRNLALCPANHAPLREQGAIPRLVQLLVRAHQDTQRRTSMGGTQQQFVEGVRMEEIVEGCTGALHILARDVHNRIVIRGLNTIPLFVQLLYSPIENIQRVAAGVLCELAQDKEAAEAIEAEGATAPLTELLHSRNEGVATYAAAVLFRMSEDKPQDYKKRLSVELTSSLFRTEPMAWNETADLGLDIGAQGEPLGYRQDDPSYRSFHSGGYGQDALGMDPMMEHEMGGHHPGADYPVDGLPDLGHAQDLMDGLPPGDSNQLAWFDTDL
UniProt Q16665: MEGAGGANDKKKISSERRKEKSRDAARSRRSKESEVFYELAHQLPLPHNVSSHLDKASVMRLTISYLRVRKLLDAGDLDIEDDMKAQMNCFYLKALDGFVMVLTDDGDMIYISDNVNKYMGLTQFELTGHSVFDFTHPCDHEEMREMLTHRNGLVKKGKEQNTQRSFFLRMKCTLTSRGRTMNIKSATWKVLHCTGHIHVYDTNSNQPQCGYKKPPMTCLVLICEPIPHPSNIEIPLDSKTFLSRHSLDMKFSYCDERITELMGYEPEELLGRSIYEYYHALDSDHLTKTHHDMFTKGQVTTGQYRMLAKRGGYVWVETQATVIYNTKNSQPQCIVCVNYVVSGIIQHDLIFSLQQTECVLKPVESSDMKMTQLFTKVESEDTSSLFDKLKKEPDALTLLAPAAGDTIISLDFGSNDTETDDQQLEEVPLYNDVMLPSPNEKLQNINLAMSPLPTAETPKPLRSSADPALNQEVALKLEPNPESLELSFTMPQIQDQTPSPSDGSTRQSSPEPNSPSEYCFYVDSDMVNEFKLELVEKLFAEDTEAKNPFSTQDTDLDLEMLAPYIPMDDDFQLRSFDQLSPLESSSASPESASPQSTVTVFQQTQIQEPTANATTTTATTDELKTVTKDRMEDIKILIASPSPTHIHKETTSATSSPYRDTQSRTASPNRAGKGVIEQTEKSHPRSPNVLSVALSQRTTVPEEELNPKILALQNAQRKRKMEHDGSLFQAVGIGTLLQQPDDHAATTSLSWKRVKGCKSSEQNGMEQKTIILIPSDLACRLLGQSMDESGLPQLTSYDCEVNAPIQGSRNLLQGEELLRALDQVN
UniProt P17844: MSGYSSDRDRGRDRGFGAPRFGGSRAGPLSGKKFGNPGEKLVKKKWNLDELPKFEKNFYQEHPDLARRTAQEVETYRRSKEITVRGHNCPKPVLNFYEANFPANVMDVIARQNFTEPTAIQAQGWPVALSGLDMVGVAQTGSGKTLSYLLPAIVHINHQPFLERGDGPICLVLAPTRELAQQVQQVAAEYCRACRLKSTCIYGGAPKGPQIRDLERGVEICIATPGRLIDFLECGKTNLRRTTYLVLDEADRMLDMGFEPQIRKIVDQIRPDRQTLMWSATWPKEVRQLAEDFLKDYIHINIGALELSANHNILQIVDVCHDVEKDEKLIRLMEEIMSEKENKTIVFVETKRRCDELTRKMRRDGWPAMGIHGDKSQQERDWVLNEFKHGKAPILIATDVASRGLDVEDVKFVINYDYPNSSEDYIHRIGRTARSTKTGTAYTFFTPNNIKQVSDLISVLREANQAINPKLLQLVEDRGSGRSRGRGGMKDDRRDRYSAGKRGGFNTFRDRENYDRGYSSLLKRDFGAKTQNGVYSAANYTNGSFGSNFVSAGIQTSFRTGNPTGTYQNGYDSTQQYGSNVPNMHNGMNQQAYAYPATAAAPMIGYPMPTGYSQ

How the values were obtained:
Assay in all cases: co-IP; total nuclear lysates (1 mg) of ARCaPM cells, PDGF-BB (20 ng/ml) time course; 5 µg anti-HIF-1α, anti-β-catenin or anti-p68 antibody or normal IgG, Protein A/G Sepharose 4 Fast Flow beads; Western blot
[1] = biological target: β-catenin (human (endogenous in ARCaPM)) (UniProt P35222)
[2] = biological target: hypoxia-inducible factor (HIF)-1α (human (endogenous in ARCaPM)) (UniProt Q16665)
[3] = biological target: p68 (human (endogenous in ARCaPM)) (UniProt P17844)

Substance | binding [1] | binding [2] | binding [3]
p68 (from UniProt P17844 1-614) | binds |  | 
hypoxia-inducible factor (HIF)-1α (from UniProt Q16665 1-826) | binds |  | 
β-catenin (from UniProt P35222 1-781) |  | binds | binds
